Assay results: the supplement of paper PMC10849652
The list shows a part of the results.

Sequences of proteins named here, by UniProt entry; tags and fusion partners are left off. A change or cut given only in a name is not applied to a line headed by its entry.
UniProt O95302: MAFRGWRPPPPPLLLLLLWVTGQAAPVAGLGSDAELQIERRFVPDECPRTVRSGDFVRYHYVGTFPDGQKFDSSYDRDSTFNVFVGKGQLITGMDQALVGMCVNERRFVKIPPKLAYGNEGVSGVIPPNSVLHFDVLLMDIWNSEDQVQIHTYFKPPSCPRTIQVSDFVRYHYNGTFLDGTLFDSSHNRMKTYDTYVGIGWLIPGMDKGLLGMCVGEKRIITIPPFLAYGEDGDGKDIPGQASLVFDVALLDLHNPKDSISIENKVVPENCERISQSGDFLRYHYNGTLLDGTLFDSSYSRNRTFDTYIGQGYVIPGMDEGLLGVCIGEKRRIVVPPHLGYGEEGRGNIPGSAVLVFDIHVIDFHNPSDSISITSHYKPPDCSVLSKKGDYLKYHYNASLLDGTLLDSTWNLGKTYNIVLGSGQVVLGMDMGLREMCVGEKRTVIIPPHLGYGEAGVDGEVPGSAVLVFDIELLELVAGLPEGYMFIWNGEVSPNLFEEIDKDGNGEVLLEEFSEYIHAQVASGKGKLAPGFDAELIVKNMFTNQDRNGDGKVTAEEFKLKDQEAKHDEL
UniProt Q13451: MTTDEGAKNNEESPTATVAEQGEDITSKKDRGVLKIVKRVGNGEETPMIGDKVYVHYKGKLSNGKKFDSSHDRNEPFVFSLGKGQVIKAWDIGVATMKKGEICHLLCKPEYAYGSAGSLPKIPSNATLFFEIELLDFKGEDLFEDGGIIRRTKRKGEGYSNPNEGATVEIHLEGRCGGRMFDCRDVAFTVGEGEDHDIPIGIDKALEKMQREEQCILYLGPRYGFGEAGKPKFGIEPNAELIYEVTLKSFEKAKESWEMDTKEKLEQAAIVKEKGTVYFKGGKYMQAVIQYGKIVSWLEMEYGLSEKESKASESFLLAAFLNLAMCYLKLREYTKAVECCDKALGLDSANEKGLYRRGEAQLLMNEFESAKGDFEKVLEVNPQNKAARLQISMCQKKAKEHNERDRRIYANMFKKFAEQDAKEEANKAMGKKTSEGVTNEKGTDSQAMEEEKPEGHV
UniProt Q9Y285: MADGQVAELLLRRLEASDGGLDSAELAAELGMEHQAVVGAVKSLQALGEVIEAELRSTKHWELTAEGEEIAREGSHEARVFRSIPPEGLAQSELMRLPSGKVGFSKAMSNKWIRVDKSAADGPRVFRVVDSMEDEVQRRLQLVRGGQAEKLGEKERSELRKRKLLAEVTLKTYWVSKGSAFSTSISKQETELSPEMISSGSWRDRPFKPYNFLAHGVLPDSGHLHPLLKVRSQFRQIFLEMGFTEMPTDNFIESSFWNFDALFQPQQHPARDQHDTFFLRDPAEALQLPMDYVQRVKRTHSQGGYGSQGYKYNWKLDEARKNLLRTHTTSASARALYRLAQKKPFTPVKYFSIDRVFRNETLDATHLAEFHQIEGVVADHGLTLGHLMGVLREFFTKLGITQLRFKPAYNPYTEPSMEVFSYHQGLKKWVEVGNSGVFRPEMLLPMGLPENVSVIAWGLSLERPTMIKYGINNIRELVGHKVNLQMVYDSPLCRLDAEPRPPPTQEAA
UniProt Q96CP2: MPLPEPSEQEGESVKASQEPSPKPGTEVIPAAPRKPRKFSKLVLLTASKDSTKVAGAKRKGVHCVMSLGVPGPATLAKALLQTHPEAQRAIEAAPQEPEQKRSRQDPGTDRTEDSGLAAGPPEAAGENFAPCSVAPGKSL
UniProt P98173: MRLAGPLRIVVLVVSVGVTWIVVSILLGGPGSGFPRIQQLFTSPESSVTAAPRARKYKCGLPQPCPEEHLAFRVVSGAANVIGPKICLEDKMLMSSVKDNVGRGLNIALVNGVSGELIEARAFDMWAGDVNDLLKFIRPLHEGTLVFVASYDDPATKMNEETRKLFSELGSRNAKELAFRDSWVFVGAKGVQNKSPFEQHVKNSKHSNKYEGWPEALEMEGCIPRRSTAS
UniProt Q9H4H8: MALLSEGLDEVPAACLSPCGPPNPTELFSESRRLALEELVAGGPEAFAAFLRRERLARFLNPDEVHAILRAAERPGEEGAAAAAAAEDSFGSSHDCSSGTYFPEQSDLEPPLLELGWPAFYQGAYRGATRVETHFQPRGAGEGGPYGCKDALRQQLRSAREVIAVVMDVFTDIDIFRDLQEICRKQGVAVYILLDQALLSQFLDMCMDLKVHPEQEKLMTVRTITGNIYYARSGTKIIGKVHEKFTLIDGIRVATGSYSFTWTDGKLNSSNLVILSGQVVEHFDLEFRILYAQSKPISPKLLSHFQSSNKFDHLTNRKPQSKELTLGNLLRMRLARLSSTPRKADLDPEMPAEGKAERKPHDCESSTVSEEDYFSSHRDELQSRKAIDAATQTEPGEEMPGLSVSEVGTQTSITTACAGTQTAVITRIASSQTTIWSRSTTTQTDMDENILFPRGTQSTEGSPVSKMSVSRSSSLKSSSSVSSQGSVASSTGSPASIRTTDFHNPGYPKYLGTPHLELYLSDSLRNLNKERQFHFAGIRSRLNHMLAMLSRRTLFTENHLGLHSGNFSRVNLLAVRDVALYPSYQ
UniProt Q8WVX9: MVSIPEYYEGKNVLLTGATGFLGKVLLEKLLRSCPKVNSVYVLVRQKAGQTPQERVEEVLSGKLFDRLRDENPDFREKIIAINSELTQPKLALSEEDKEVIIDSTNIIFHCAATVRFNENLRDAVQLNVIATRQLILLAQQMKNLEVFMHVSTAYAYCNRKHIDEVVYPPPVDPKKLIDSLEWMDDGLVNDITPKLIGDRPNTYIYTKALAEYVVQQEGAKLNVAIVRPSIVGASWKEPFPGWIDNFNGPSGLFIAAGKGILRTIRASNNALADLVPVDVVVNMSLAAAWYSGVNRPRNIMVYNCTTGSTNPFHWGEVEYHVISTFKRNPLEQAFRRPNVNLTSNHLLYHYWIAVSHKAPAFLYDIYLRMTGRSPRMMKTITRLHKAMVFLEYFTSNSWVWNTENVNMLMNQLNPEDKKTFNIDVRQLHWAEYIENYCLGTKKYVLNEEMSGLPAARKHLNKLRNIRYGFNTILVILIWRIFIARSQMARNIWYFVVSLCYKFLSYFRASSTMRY
UniProt Q8N0W3: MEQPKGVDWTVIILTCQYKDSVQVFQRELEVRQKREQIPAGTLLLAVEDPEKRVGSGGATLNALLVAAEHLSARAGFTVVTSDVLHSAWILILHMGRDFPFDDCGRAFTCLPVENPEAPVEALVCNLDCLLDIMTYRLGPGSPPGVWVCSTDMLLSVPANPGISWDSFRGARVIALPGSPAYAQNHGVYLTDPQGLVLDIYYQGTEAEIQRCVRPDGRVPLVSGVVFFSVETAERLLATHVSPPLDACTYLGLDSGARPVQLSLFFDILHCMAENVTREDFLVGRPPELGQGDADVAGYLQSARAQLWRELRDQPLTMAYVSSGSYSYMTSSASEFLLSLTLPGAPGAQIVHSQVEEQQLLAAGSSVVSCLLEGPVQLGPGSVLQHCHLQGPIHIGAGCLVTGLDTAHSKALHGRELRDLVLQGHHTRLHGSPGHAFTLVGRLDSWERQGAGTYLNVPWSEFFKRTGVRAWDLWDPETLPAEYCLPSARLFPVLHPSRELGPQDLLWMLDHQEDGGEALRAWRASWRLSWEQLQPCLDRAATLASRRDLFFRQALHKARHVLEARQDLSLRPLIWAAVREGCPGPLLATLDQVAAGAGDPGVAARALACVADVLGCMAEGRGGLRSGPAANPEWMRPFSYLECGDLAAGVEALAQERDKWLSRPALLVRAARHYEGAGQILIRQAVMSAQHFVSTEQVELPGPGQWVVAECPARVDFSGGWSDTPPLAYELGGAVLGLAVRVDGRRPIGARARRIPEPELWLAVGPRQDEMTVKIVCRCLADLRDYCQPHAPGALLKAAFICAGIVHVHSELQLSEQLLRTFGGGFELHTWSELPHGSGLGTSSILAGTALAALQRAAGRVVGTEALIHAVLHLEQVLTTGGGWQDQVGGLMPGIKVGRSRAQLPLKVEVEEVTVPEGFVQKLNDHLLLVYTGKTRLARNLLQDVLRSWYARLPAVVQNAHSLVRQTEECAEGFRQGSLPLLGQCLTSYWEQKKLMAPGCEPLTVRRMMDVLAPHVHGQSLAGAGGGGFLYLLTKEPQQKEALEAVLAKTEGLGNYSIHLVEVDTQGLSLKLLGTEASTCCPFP
UniProt Q9NXK8: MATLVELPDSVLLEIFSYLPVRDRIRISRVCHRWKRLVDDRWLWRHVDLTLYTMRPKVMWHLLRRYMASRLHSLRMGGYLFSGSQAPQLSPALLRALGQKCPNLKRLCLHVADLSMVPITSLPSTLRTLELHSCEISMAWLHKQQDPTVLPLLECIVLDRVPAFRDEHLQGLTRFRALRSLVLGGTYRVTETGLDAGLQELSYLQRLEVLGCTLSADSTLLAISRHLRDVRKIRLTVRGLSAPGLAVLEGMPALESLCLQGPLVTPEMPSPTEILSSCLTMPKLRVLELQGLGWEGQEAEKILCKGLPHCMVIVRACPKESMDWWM
UniProt Q9NYY8: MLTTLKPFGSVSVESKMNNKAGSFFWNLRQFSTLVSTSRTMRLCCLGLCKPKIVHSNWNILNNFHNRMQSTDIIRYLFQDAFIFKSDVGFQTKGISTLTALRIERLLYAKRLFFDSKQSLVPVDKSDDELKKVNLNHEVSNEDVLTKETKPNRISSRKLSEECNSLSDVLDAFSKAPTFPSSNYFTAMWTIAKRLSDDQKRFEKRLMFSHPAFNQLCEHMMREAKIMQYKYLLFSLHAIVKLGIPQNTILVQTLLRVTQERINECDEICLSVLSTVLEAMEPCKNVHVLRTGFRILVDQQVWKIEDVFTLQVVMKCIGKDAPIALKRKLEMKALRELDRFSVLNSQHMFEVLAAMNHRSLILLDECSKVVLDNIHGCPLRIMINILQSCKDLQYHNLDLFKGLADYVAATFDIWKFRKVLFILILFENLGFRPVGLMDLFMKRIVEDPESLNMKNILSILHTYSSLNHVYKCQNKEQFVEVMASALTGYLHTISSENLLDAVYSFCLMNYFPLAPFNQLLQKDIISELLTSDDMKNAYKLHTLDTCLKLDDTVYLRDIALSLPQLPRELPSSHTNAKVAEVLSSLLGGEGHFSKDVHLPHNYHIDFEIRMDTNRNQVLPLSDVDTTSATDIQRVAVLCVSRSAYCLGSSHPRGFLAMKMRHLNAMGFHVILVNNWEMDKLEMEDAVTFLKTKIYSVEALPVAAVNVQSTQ
UniProt Q9BXW9: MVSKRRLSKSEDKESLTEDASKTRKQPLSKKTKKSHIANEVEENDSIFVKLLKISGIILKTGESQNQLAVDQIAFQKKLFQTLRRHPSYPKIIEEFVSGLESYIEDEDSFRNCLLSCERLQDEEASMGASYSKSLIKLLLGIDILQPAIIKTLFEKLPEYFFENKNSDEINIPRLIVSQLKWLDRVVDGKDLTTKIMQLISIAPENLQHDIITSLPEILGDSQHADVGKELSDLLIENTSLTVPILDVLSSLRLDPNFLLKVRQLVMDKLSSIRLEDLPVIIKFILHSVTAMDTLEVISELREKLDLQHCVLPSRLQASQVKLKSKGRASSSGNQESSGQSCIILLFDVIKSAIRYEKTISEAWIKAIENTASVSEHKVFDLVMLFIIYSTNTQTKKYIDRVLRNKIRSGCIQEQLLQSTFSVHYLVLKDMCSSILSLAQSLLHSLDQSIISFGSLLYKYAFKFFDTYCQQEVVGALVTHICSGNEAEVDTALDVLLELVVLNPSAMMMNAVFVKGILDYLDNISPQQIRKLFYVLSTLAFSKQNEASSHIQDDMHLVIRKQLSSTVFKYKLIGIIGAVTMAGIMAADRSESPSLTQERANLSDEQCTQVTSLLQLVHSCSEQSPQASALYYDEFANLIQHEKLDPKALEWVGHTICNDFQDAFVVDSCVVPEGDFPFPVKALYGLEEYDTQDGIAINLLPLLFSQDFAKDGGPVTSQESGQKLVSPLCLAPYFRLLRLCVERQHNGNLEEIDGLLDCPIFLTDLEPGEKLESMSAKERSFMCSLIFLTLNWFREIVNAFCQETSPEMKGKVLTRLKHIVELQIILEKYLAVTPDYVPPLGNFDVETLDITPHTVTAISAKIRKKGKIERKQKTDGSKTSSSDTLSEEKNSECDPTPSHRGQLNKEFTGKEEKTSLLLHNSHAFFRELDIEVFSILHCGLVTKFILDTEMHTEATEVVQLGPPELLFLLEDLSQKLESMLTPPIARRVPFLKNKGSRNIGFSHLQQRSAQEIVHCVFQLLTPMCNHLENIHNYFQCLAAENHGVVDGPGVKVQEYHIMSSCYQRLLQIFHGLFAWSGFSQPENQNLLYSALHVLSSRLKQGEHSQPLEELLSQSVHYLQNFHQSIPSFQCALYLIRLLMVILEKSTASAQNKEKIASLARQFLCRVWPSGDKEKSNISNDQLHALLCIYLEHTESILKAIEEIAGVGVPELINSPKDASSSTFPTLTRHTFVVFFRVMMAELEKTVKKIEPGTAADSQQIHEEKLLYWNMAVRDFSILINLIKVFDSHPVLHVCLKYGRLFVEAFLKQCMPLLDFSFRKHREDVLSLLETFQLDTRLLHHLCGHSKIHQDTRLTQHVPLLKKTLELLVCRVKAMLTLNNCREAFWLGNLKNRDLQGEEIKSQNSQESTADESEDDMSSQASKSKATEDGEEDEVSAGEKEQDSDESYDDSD

What was measured:
Assay in all cases: log2 fold change, soluble protein after heating vs DMSO (PISA); higher = thermal stabilisation; K562 cells, 10 uM, 30 min; active = over 0.2 and 3.5 SD of the protein, either way, in both replicates (recomputed)
bafetinib = compound: Cc1ccc(NC(=O)c2ccc(CN3CC[C@H](N(C)C)C3)c(C(F)(F)F)c2)cc1Nc1nccc(-c2cncnc2)n1 [bafetinib]
In short: (§1)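 Quantification of soluble protein used TMTpro 16plex LC-MS/MS, with channel sums equalised. Samples were the supernatant after 21,000xg for 90 min of pooled aliquots from K562 cells (2×10^6 cells/mL) treated with 10 μM compound for 30 min, heated for 3 min over 48°C-58°C, and extracted in PBS with 0.5% NP-40 at 4°C. Values, from duplicates, describe thermal stability against control samples on a log2 fold-change scale.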

[1] = compound: Cc1cccc(CC(=O)N2CCc3c2ccc(-c2cn(C)c4ncnc(N)c24)c3F)n1
In short: as §1

nilotinib = compound: Cc1cn(-c2cc(NC(=O)c3ccc(C)c(Nc4nccc(-c5cccnc5)n4)c3)cc(C(F)(F)F)c2)cn1 [nilotinib]
In short: as §1

[2] = compound: Cc1nc(Nc2n[nH]c3c2CN(C(=O)N[C@H](CN(C)C)c2ccccc2)C3(C)C)c2sccc2n1
In short: as §1

dasatinib = compound: Cc1nc(Nc2ncc(C(=O)Nc3c(C)cccc3Cl)s2)cc(N2CCN(CCO)CC2)n1 [dasatinib]
In short: as §1

[3] = compound: Cc1ncc(-c2ccnc(Nc3ccc(S(C)(=O)=O)cc3)n2)n1C(C)C
In short: as §1

[4] = compound: Cn1cc(-c2ccc3c(c2)CCN3C(=O)Cc2cccc(C(F)(F)F)c2)c2c(N)ncnc21
In short: as §1

[5] = compound: Cn1cc(-c2ccc3nnc(C(F)(F)c4ccc5ncccc5c4)n3n2)cn1
In short: as §1

tipifarnib = compound: Cn1cncc1[C@@](N)(c1ccc(Cl)cc1)c1ccc2c(c1)c(-c1cccc(Cl)c1)cc(=O)n2C [tipifarnib]
In short: as §1

mubritinib = compound: FC(F)(F)c1ccc(/C=C/c2nc(COc3ccc(CCCCn4ccnn4)cc3)co2)cc1 [mubritinib]
In short: as §1

[6] = compound: NC(=O)Nc1cc(-c2cccc(F)c2)sc1C(=O)N[C@H]1CCCNC1
In short: as §1

[7] = compound: NC(=O)c1cnc(N[C@@H]2CCCC[C@@H]2N)nc1Nc1cccc(-n2nccn2)c1
In short: as §1

[8] = compound: NC1(c2ccc(-c3nc4ccn5c(=O)[nH]nc5c4cc3-c3ccccc3)cc2)CCC1
In short: as §1

[9] = compound: NCC(=O)Nc1ccc(-n2nc(C(F)(F)F)cc2-c2ccc3c(ccc4ccccc43)c2)cc1
In short: as §1

entinostat = compound: Nc1ccccc1NC(=O)c1ccc(CNC(=O)OCc2cccnc2)cc1 [entinostat]
In short: as §1

vorinostat = compound: O=C(CCCCCCC(=O)Nc1ccccc1)NO [vorinostat]
In short: as §1

citarinostat = compound: O=C(CCCCCCNC(=O)c1cnc(N(c2ccccc2)c2ccccc2Cl)nc1)NO [citarinostat]
In short: as §1

silmitasertib = compound: O=C(O)c1ccc2c(c1)nc(Nc1cccc(Cl)c1)c1ccncc12 [silmitasertib]
In short: as §1

[10] = compound: O=C1NC(=O)C(c2cnc3ccccn23)=C1c1cn2c3c(cc(F)cc13)CN(C(=O)N1CCCCC1)CC2
In short: as §1

[11] = compound: c1cc(OCCN2CCCCC2)cc(-c2n[nH]c3ccc(-c4nnc[nH]4)cc23)c1
In short: as §1

Measured: log2 fold change

FKBP9 (UniProt O95302)
inactive: bafetinib -0.052 | [1] -0.029 | nilotinib 0.027 | [2] 0.033 | dasatinib 0.03 | [3] -0.055 | [4] -0.048 | [5] 0.036 | tipifarnib 0.037 | mubritinib -0.06 | [6] -0.073 | [7] 0.007 | [8] -0.028 | [9] -0.013 | entinostat -0.02 | vorinostat -0.03 | citarinostat 0.029 | silmitasertib 0.015 | [10] -0.007 | [11] -0.056

FLNA (UniProt P21333)
inactive: bafetinib 0.011 | [1] 0.059 | nilotinib -0.056 | [2] -0.025 | dasatinib -0.158 | [3] 0.059 | [4] -0.053 | [5] 0.007 | tipifarnib -0.176 | mubritinib 0.112 | [6] -0.069 | [7] -0.069 | [8] -0.093 | [9] -0.072 | entinostat 0.042 | vorinostat 0.061 | citarinostat 0.062 | silmitasertib 0.11 | [10] -0.002 | [11] -0.032

FKBP5 (UniProt Q13451)
inactive: bafetinib 0.011 | [1] 0.035 | nilotinib -0.129 | [2] -0.122 | dasatinib -0.135 | [3] 0.072 | [4] 0.003 | [5] 0.067 | tipifarnib -0.164 | mubritinib -0.026 | [6] -0.097 | [7] -0.155 | [8] -0.087 | [9] -0.05 | entinostat 0.034 | vorinostat 0.098 | citarinostat 0.092 | silmitasertib 0.103 | [10] 0.083 | [11] -0.007

FARSA (UniProt Q9Y285)
inactive: bafetinib 0.021 | [1] 0.071 | nilotinib -0.064 | [2] -0.009 | dasatinib -0.06 | [3] 0.021 | [4] 0.024 | [5] 0.008 | tipifarnib -0.088 | mubritinib 0.03 | [6] -0.041 | [7] -0.03 | [8] -0.097 | [9] -0.063 | entinostat -0.013 | vorinostat 0.041 | citarinostat 0.03 | silmitasertib 0.007 | [10] -0.028 | [11] -0.034

FLYWCH2 (UniProt Q96CP2)
inactive: bafetinib -0.004 | [1] 0.124 | nilotinib 0.019 | [2] -0.018 | dasatinib 0.01 | [3] 0.005 | [4] 0.043 | [5] -0.042 | tipifarnib -0.02 | mubritinib -0.005 | [6] -0.027 | [7] 0.073 | [8] 0.039 | [9] 0.021 | entinostat 0.01 | vorinostat 0.076 | citarinostat 0.025 | silmitasertib 0.006 | [10] -0.026 | [11] 0.012

FAM49B (UniProt Q9NUQ9)
inactive: bafetinib -0.001 | [1] 0.011 | nilotinib -0.003 | [2] -0.017 | dasatinib -0.057 | [3] -0.012 | [4] 0.062 | [5] 0.037 | tipifarnib -0.009 | mubritinib 0.047 | [6] -0.035 | [7] -0.023 | [8] -0.093 | [9] -0.028 | entinostat -0.031 | vorinostat 0.025 | citarinostat 0.017 | silmitasertib 0.014 | [10] -0.02 | [11] -0.017

FAM3A (UniProt P98173)
inactive: bafetinib -0.027 | [1] 0.023 | nilotinib 0.007 | [2] -0.044 | dasatinib 0.036 | [3] -0.001 | [4] 0.031 | [5] -0.03 | tipifarnib 0.042 | mubritinib 0 | [6] 0.022 | [7] -0.028 | [9] 0.006 | entinostat -0.097 | vorinostat -0.01 | citarinostat 0 | silmitasertib -0.015 | [10] 0.034 | [11] -0.028
active: [8] -0.21

FAM83D (UniProt Q9H4H8)
inactive: bafetinib -0.022 | [1] 0.145 | nilotinib -0.069 | [2] -0.088 | dasatinib -0.241 | [3] 0.016 | [4] -0.073 | [5] -0.027 | tipifarnib -0.107 | mubritinib 0.023 | [6] -0.031 | [7] -0.073 | [8] -0.072 | [9] 0.075 | entinostat 0.008 | vorinostat 0.066 | citarinostat 0.115 | silmitasertib 0.048 | [10] -0.058 | [11] 0.059

FAR1 (UniProt Q8WVX9)
inactive: bafetinib -0.083 | [1] -0.008 | nilotinib -0.009 | [2] 0.003 | dasatinib 0.038 | [3] 0.004 | [4] 0.006 | [5] 0.051 | tipifarnib 0.16 | mubritinib 0.014 | [6] -0.03 | [7] -0.003 | [8] 0.027 | [9] -0.084 | entinostat -0.017 | vorinostat 0.012 | citarinostat 0.044 | silmitasertib -0.051 | [10] -0.135 | [11] 0.111

FCSK isoform 2 (UniProt Q8N0W3)
inactive: bafetinib -0.102 | [1] -0.051 | nilotinib 0.072 | [2] -0.019 | dasatinib 0.001 | [3] -0.013 | [4] 0.025 | [5] 0.019 | tipifarnib -0.084 | mubritinib 0.059 | [6] 0.028 | [7] 0.048 | [8] -0.052 | [9] 0.032 | entinostat 0.001 | vorinostat -0.009 | citarinostat 0.02 | silmitasertib -0.031 | [10] -0.063 | [11] 0.013

FBXL12 (UniProt Q9NXK8)
inactive: bafetinib -0.053 | [1] 0.134 | nilotinib 0.026 | [2] -0.134 | dasatinib -0.119 | [3] -0.114 | [4] 0.039 | [5] 0.023 | tipifarnib 0.022 | mubritinib 0.018 | [6] 0.019 | [7] -0.026 | [8] -0.186 | [9] -0.07 | entinostat -0.011 | vorinostat -0.038 | citarinostat 0.045 | silmitasertib 0.075 | [10] -0.088 | [11] 0.009

FHOD1 (UniProt Q9Y613)
inactive: bafetinib -0.187 | [1] -0.005 | nilotinib -0.089 | [2] -0.109 | dasatinib 0.044 | [3] -0.043 | [4] -0.238 | [5] -0.089 | tipifarnib 0.041 | mubritinib -0.218 | [6] -0.075 | [7] -0.042 | [8] 0.179 | [9] 0.051 | entinostat -0.103 | vorinostat 0.034 | citarinostat -0.073 | silmitasertib 0.177 | [10] 0.23 | [11] -0.085

FLT4 (UniProt P35916)
inactive: bafetinib -0.032 | [1] -0.135 | nilotinib 0.405 | [2] 0.062 | dasatinib 0.029 | [3] -0.044 | [4] 0.106 | [5] 0.071 | tipifarnib -0.016 | mubritinib -0.009 | [6] -0.051 | [7] 0.014 | [8] -0.008 | [9] 0.022 | entinostat -0.019 | vorinostat 0 | citarinostat -0.06 | silmitasertib -0.002 | [10] -0.074 | [11] 0.029

FASTKD2 (UniProt Q9NYY8)
inactive: bafetinib -0.066 | [1] -0.004 | nilotinib 0.012 | [2] -0.016 | dasatinib -0.097 | [3] -0.009 | [4] 0.041 | [5] 0.027 | tipifarnib -0.013 | mubritinib 0.015 | [6] -0.034 | [7] -0.049 | [8] -0.131 | [9] -0.059 | entinostat 0.017 | vorinostat 0.064 | citarinostat 0.042 | silmitasertib 0.018 | [10] 0.003 | [11] -0.017

FANCD2 isoform 1 (UniProt Q9BXW9)
inactive: bafetinib -0.06 | [1] -0.014 | nilotinib -0.145 | [2] 0.15 | dasatinib -0.167 | [3] -0.119 | [4] 0.126 | [5] 0.1 | tipifarnib -0.024 | mubritinib 0.052 | [6] 0.087 | [7] -0.189 | [8] -0.304 | [9] -0.034 | entinostat 0.022 | vorinostat 0.187 | citarinostat 0.11 | silmitasertib -0.109 | [10] -0.034 | [11] -0.039
